This is one part of the list. Single values are uncertain, as repeats are few or missing.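 The apoptosis fraction was the count of cleaved-PARP antibody-stained nuclei relative to all DNA-stained nuclei, imaged in 1,536-well plates. Screening doses were set so most cells survived, and baseline and induced cleaved-PARP levels vary greatly across cell lines.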
test system: SkMel5; experiment: cleaved PARP positive nuclei fraction relative to DMSO control; melanoma cells; higher = more apoptosis; conditions: library dose: low library concentration; 72 h

Compared with O=C1NC(=O)/C(=C/c2ccc(-c3ccc(F)cc3O)o2)S1 + O=C(Oc1ccc([N+](=O)[O-])cc1)N1CCC(C(O)(c2ccc3c(c2)OCO3)c2ccc3c(c2)OCO3)CC1 [JZL184] (first compound 1 µM, partner dose 1 µM), N#Cc1c(O)c2c(-c3ccc(-c4ccccc4O)cc3)csc2[nH]c1=O + Cc1cc(SCc2sc(-c3ccc(C(F)(F)F)c(F)c3)nc2C)ccc1OCC(=O)O [GW0742] (first compound 2 µM, partner dose 2 µM) is lower in “cleaved PARP positive nuclei fraction” value: 59.2% for the first, 41.5% for the second.

First: CN(C)S(=O)(=O)c1ccc2c(c1)/C(=C/c1cc3c([nH]1)CCCC3)C(=O)N2 + Cc1cc(SCc2sc(-c3ccc(C(F)(F)F)c(F)c3)nc2C)ccc1OCC(=O)O [GW0742] (first compound 0.4 µM, partner dose 2 µM)
Second: C[C@]12O[C@H](C[C@]1(O)CO)n1c3ccccc3c3c4c(c5c6ccccc6n2c5c31)CNC4=O [Lestaurtinib] + CO[C@@H]1[C@H](N(C)C(=O)c2ccccc2)C[C@H]2O[C@]1(C)n1c3ccccc3c3c4c(c5c6ccccc6n2c5c31)C(=O)NC4 [Midostaurin] (first compound 0.004 µM, partner dose 0.08 µM)
The “cleaved PARP positive nuclei fraction” value of the first is higher: 258% for the first, 120% for the second.

Going from O=C(Oc1ccc([N+](=O)[O-])cc1)N1CCC(C(O)(c2ccc3c(c2)OCO3)c2ccc3c(c2)OCO3)CC1 + Cn1cc(/C=C2\C(=O)Nc3cccnc32)c2ccccc21 [GW441756] (first compound 1 µM, partner dose 0.4 µM) to C[C@]12O[C@H](C[C@]1(O)CO)n1c3ccccc3c3c4c(c5c6ccccc6n2c5c31)CNC4=O [Lestaurtinib] + NC(=O)Nc1cc(-c2cccc(F)c2)sc1C(=O)N[C@H]1CCCNC1 [AZD7762] (first compound 0.004 µM, partner dose 0.02 µM), the “cleaved PARP positive nuclei fraction” value falls from 74.8% to 60.4%.

First: CO[C@H]1C[C@@H]2CC[C@@H](C)[C@@](O)(O2)C(=O)C(=O)N2CCCC[C@H]2C(=O)O[C@H]([C@H](C)C[C@@H]2CC[C@@H](OCCO)[C@H](OC)C2)CC(=O)[C@H](C)/C=C(\C)[C@@H](O)[C@@H](OC)C(=O)[C@H](C)C[C@H](C)/C=C/C=C/C=C/1C [everolimus] + Cc1cc(SCc2sc(-c3ccc(C(F)(F)F)c(F)c3)nc2C)ccc1OCC(=O)O [GW0742] (first compound 0.02 µM, partner dose 2 µM)
Second: C[C@]12O[C@H](C[C@]1(O)CO)n1c3ccccc3c3c4c(c5c6ccccc6n2c5c31)CNC4=O [Lestaurtinib] + CN(NC(=O)CC(=O)NN(C)C(=S)c1ccccc1)C(=S)c1ccccc1 [STA4783] (first compound 0.004 µM, partner dose 0.006 µM)
The “cleaved PARP positive nuclei fraction” value of the first is lower: 150% for the first, 170% for the second.

With C[C@]12O[C@H](C[C@]1(O)CO)n1c3ccccc3c3c4c(c5c6ccccc6n2c5c31)CNC4=O [Lestaurtinib] + O=C(O)C(=O)Nc1sc2c(c1C(=O)O)CCNC2 [TCS401] (first compound 0.004 µM, partner dose 1.66667 µM) the “cleaved PARP positive nuclei fraction” value was 122%.

— the supplement of paper PMC4604168 (melanoma cell lines)
